Laboratory results taken from publication PMC6358775, “Elucidation of Vasodilation Response and Structure Activity Relationships of N^2,N^4-Disubstituted Quinazoline 2,4-Diamines in a Rat Pulmonary Artery Model” (Molecules, 2019).
“And” between values parts separate entries of the source, which are not always exact repeats. Equal entries are not always repeated.

Test system: A549 cells
Assay: MTT cytotoxicity assay in A549 cells
Assay type: cell-based, human
Details: for SI (PDE-5 vs. A549): selectivity: A549 IC50 over PDE-5 IC50, fold, value in brackets; for SI E+ vs. A549: selectivity: A549 IC50 over vasodilation E+ EC50, fold
Description: A 3-[4,5-dimehyl-2-thiazolyl]-2,5-diphenyl-2H-tetrazoliumbromide (MTT) assay was utilized to assess the concentration-response curves for quinazoline analogues as previously reported. A549 cells (ATCC CCL-185, human alveolar basal epithelial cell line) were used to account for the general cytotoxicity of compounds. Cells were cultured in DMEM medium containing fetal bovine serum (FBS; 10%), penicillin (10 U/mL), and streptomycin (100 U/mL). The temperature was maintained at 37 °C with 5% CO2. Cells were seeded for 16–18 h in DMEM and incubated for 72 h with the test compounds. After incubation, MTT (5 mg/mL in normal saline) was added with DMEM and incubated for 3 h. Careful decantation of the medium and addition of DMSO (50 µL) was done. Absorbance values were recorded at 570 nm after 5 min mechanical shaking of the microplate (Sunrise microplate reader, Tecan).
The activity was presented as the inhibitory concentration required to produce a 50% response (IC50). Prism 6.0 GraphPad Software Inc., (San Diego, CA, USA) was utilized for data fitting. 0.5% DMSO was used as the negative control.

Row | SMILES | SI (PDE-5 vs. A549) | SI E+ vs. A549
1 | c1ccc(CNc2nc(Nc3ccccc3)nc3ccccc23)cc1 [Compound 1] | 8.9 | 2.2
2 | c1ccc(CNc2nc(Nc3ccc(N4CCOCC4)cc3)nc3ccccc23)cc1 [Compound 2] | 22.8 | 2.4
3 | CN(C)S(=O)(=O)c1ccc(Nc2nc(NCc3ccccc3)c3ccccc3n2)cc1 [Compound 3] | 14.5 | 5.1
4 | NS(=O)(=O)c1ccc(Nc2nc(NCc3ccccc3)c3ccccc3n2)cc1 [Compound 4] | 24.2 | 7.3
5 | NS(=O)(=O)c1cccc(Nc2nc(NCc3ccccc3)c3ccccc3n2)c1 [Compound 5] | 159.3 | 6.8
6 | c1ccc(Nc2nc(NCc3cccs3)c3ccccc3n2)cc1 [Compound 6] | 19.3 | 2.9
7 | O=C(Nc1ccccc1)Nc1ccc(Nc2nc(NCc3cccs3)c3ccccc3n2)cc1 [Compound 7] | 3.7 | 0.7
8 | c1csc(CNc2nc(Nc3ccc(N4CCOCC4)cc3)nc3ccccc23)c1 [Compound 8] | 22.3 | 19.6
9 | NS(=O)(=O)c1ccc(Nc2nc(NCc3cccs3)c3ccccc3n2)cc1 [Compound 9] | 148.5 | ~ 32 and 31.7
10 | NC(=O)c1ccc(Nc2nc(NCc3cccs3)c3ccccc3n2)cc1 [Compound 10] | 157.2 | 19.4
11 | NS(=O)(=O)c1cccc(Nc2nc(NCc3cccs3)c3ccccc3n2)c1 [Compound 11] | 167.1 | 6.6
12 | NC(=O)c1cccc(Nc2nc(NCc3cccs3)c3ccccc3n2)c1 [Compound 12] | 53.2 | 3.7
13 | NS(=O)(=O)c1cccc(Nc2nc(NCc3ccco3)c3ccccc3n2)c1 [Compound 13] | 224.3 | 4.1
14 | Clc1cnc(Nc2ccccc2)nc1NCc1ccccc1 [Compound 14] | > 10 | > 22.3
